Results on three compounds are retold here after US11180783B2, “Method for producing chiral amines” (VITO NV, priority 2017, dated 2021).

For data set [1], the system named is TA_v2. Type of data set: biochemical. The note with it: Desal-DK membrane. The protocol: Reaction was performed in 600 mL volume containing 2 mg/mL of TA_v2 powder, 250 mM AD 6, 10 mM BA substrate (dissolved in DMSO) and 0.1 mM PLP in 100 mM CHES buffer, pH 9.5. The final DSMO concentration was 5% (v/v). After 16 h of reaction, 550 mL of reaction mixture was transferred into the membrane unit and 2 intermittent nanofiltration tests were performed. The remaining 50 mL of reaction mixture was used as control without filtration. After the first nanofiltration (6 h duration, DESAL® DK, 20 bar), the collected permeate and the retentate were mixed, and 5 mM of additional BA substrate were added. Additional substrate was added also to the control condition. After 16 h of reaction, the second nanofiltration was performed (5 h duration, DuraMem® 200, 20 bar). Reaction permeate and retentate samples were taken after distinct time periods and prepared for quantitative analysis.
Addition of BA (5 mM) was made to the enzymatic tank E-1 after 24 h reaction. The second nanofiltration was run after 39 h reaction (DuraMem® 200 membrane, 20 bar).

A short description of data set [2]: membrane screening: rejection of HMW amino donors. The settings on record: 250 mM AD, 0.1 mM PLP, 100 mM CHES pH 9.5.

A value given as a limit tells only on which side of the number the result lay.

As to `CC(N)CCc1ccccc1` (stereo not drawn) [1M3P, 1-methyl-3-phenylpropylamine], in data set [1], the “MPPA concentration after nanofiltration” value came out at 7.3 mM and the “MPPA concentration before nanofiltration” value stood at 5.9 mM.

Regarding “O,O′-bis(2-aminopropyl) polypropylene glycol-block-polyethylene glycol-block-polypropylene glycol [AD 6]”, the Rejection % in data set [2] (Alfalaval NF99) was 83.2%; in data set [2] (Desal-DK-GE) it was 87.5%; in data set [2] (Dow NF90), 83.0%; in data set [2] (Duramem200) it was 85.7%; in data set [2] (GE KH Duracid), 62.2%; in data set [2] (SolSep-10206), 83.8%. The figures for the Rejection % in data set [2] (Synder NFW) and in data set [2] (Synder NFX) were 85.1% and 85.9%, respectively.

In the case of “Poly(propylene glycol) bis(2-aminopropyl ether) [AD 3]”, the Rejection % in data set [2] (Desal-DK-GE) was 85.0%; in data set [2] (Duramem200) it was 79.7%; in data set [2] (PuraMem selective), less than 30%; in data set [2] (Puramem Flux) it was less than 30%; in data set [2] (Puramem Performance), less than 30%; in data set [2] (SolSep-10206) it was less than 30%. The Rejection % in data set [2] (Synder NFW) is 82.3%; in data set [2] (Synder NFX), 85.9%.
